Results as given in PubChem BioAssay AID1671190 (National Center for Advancing Translational Sciences (NCATS), 2021).
Hit rate of the full screen: of about 580,000 compounds, about 6,100 (1.1%) were called active. Inconclusive means that the source gave no clear call. Such entries were picked first, then a sample of the others. Calls follow the shape of the dose curve; as a rule, active = well fitted inhibition curve with a large enough effect; inconclusive = small, poorly fitted or top-dose-only effect, or another doubt; inactive = no such curve, though single readings can be large or run the other way. Where the call is inconclusive, the potency comes from a doubtful curve fit.

By UniProt entry, the sequences of proteins in these tests, tags left out. Where a name states a change or a piece, a line headed by the entry shows the natural chain unless it says otherwise.
UniProt P18054: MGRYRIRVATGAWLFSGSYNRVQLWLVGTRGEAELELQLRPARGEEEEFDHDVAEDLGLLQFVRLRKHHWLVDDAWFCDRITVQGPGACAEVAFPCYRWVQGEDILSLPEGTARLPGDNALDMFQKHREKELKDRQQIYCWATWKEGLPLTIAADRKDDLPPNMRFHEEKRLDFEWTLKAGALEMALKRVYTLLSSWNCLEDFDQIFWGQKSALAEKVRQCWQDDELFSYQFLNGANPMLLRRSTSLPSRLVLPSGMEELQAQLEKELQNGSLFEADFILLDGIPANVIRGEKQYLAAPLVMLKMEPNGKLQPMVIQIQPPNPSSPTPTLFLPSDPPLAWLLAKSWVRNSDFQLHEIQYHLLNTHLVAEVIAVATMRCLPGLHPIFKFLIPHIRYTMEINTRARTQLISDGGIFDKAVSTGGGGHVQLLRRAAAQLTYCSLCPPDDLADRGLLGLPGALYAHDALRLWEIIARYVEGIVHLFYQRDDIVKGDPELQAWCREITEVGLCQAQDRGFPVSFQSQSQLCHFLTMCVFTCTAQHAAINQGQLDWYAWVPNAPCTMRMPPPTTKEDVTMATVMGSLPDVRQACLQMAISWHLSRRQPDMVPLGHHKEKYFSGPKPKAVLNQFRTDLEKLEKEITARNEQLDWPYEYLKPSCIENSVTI

The compounds below were run against Polyunsaturated fatty acid lipoxygenase ALOX12 (Homo sapiens) (UniProt P18054) (assay: Primary qHTS assay for inhibitors of human arachidonate 12S-lipoxygenase (ALOX12): Round 2). Conditions: purified 12hLO, xylenol orange hydroperoxide absorbance; activity change, negative = inhibition: at 108 µM (top of the series) unless noted.
How it was run: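 Purified human 12hLO at 150 nM in 25 mM Hepes, 0.01% Triton X-100, pH 7.0, preincubated 15 min at room temperature with compound. Reaction started with 40 uM arachidonic acid, 30 min at room temperature. Hydroperoxide measured by Fe-xylenol orange, 573/405 nm absorbance ratio.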
% is scaled to controls: 0 for no effect and ±100 for the full control effect; potency is read from the fitted curve at half-maximal effect.

Structure (SMILES) | activity change, negative = inhibition | Potency
CCOc1ccccc1CNC(=O)c1ccc(NC(=O)N2CC(C)Sc3ccccc32)cc1 (centres undefined) | inactive: -0.223% | 
CCCN(CCC)C(=O)C(CCC(=O)OCCCN1CCN(CCOC(=O)Cc2c(C)n(C(=O)c3ccc(Cl)cc3)c3ccc(OC)cc23)CC1)NC(=O)c1ccccc1 (centres undefined) |  | inconclusive: 12.8 µM [inhibitor, partial curve, poor fit]
Cc1cccc(C(=O)c2c(N)sc3c2CCC(C)C3)c1 (centres undefined) |  | inconclusive: 89.1 µM [inhibitor, partial curve, poor fit]
C=CCOc1ccc(/C=C/c2cc(C(=O)O)c3ccccc3n2)cc1OC |  | inconclusive: 28.2 µM [inhibitor, single point]
Cc1ccc(NC(=O)c2nc[nH]c2C(=O)N2CCN(C(=O)OC(C)(C)C)CC2)cc1 | inactive: 15.3% | 
COc1cccc(Nc2cc(C)nc3nc(C)nn23)c1 | inactive: 404% | 
Cc1ccccc1-c1nnn(CCCn2c(=O)c3c(ncn3C)n(C)c2=O)n1 |  | inconclusive: 141 µM [inhibitor, single point]
O=C(NC1(C(F)(F)F)C(=O)Nc2c1c(=O)[nH]c(=O)n2-c1ccccc1)c1ccccc1 (centres undefined) |  | inconclusive: 50.1 µM [inhibitor, partial curve, poor fit]
COc1ccc(-c2cc(-c3c(O)c(OC)c4occc4c3OC)[nH]n2)cc1 |  | inconclusive: 44.7 µM [inhibitor, partial curve, poor fit]
CC(=O)N1CCN(C(=O)c2ccc(NS(=O)(=O)c3ccc(Cl)c(Cl)c3)cc2)CC1 |  | inconclusive: 56.2 µM [inhibitor, partial curve, poor fit]
COc1cc(C(=O)NCC(=O)N/N=C/c2cccs2)cc(OC)c1OC | inactive: 1.79% | 
CCNc1c(NC(=O)Nc2ccccc2C(F)(F)F)c(=O)oc2ccccc12 |  | inconclusive: 79.4 µM [inhibitor, partial curve, poor fit]
S=c1[nH]ncn1-c1ccccn1 |  | inconclusive: 8.91 µM [inhibitor, partial curve, poor fit]
FC(F)(F)Oc1ccccc1C(c1nnnn1Cc1ccccc1)N1CCN(C/C=C/c2ccccc2)CC1 (centres undefined) |  | inconclusive: 31.6 µM [inhibitor, partial curve]
COc1ccc2oc(=O)cc(CN3CCN(C(=O)c4c(OC)cccc4OC)CC3)c2c1 |  | inconclusive: 20 µM [inhibitor, full curve, poor fit]
O=C(CSc1nnnn1C1CCCCC1)N1CCCC1 | inactive: 7.06% [at 57.4 µM] | 
O=C1N(Cc2cccc(Cl)c2)C[C@@H]2C[C@@H](c3cccn3-c3cccnc3)N3CCC[C@@]123 | inactive: -6.3% | 
CCOc1ccc(C2N(c3cc(Cl)ccc3OC)C(=O)C3CCCN32)cc1OC (centres undefined) |  | inconclusive: 7.94 µM [inhibitor, partial curve, poor fit]
COc1ccccc1Nc1c(-c2ccc(O)cc2)nc2ncccn12 | inactive: -12.2% | 
CCOC(=O)C1=CCN(S(=O)(=O)c2ccccc2F)C1c1cccc(C)c1 (centres undefined) | inactive: -30% | 
O=S(=O)(c1ccccc1)N1CCN(C(c2ccccc2)c2ccc(OC(F)(F)F)cc2)CC1 (centres undefined) | inactive: 0% | 
COCCn1c(N2CCC(Cc3ccccc3)CC2)nc2c1c(=O)[nH]c(=O)n2C | inactive: 7.7% | 
COCCNS(=O)(=O)c1ccc(-c2ccc(S(=O)(=O)NCCOC)cc2)cc1 |  | inconclusive: 2 µM [inhibitor, full curve, poor fit]

Structure (SMILES) | activity change, negative = inhibition | Potency
CCOc1ccc(C(=O)CSc2nnc3ccccn23)cc1 |  | inconclusive: 4.47 µM [inhibitor, single point]
COc1ccc(CNCc2cc3c(cc2[N+](=O)[O-])OCO3)cc1 |  | inconclusive: 0.891 µM [inhibitor, full curve, poor fit]
O=[N+]([O-])c1cccc(/C=C/c2ccncc2)c1 | inactive: 4.08% | 
CC(=O)Nc1ccc(Nc2nc(C)c([N+](=O)[O-])c(Nc3ccc(NC(C)=O)cc3)n2)cc1 |  | inconclusive: 0.631 µM [inhibitor, full curve, poor fit]
COC(=O)C1=C(C)N(Cc2ccccc2C(F)(F)F)C(=NCC2CC2)NC1c1ccc(F)cc1 (centres undefined) |  | inconclusive: 100 µM [inhibitor, partial curve, poor fit]
Cc1nn(-c2ccc3nncn3n2)c2c1C(c1c(F)cccc1F)CC(=O)N2 (centres undefined) | inactive: 9.32% | 
CCN(CC)c1ncnc2c1ncn2Cc1c(Cl)cccc1Cl |  | inconclusive: 7.94 µM [inhibitor, full curve, poor fit]
Cc1ccc(NS(=O)(=O)c2c(C)nc3scc(C)n3c2=O)cc1Cl |  | inconclusive: 44.7 µM [inhibitor, partial curve, poor fit]
O=C(CCC(=O)c1ccc(F)cc1)OCc1cccc([N+](=O)[O-])c1 |  | inconclusive: 44.7 µM [inhibitor, partial curve, poor fit]
O=C(Nc1ccc2c(c1)OCO2)c1cccc2c1CCN2C(=O)Nc1ccc(F)cc1 | inactive: 0.96% | 
FC(F)(F)c1ccc(CSc2nccn2-c2ccccc2)cc1 | inactive: 0% | 
Cc1cccc(N2CCN(c3ccc(C(=O)O)cc3NC(=O)c3cccc(Cl)c3)CC2C)c1 (centres undefined) |  | active: 44.7 µM
C[C@]12C[C@H](O)CC(CO)(CO)C1[C@H](O)C[C@@]13CC4[C@@H](CC12)[C@@]4(C)C3 (some centres undefined) | inactive: -1.33% | 
CCN1C(=O)C2(CCN(S(=O)(=O)c3cccs3)CC2)c2ccccc21 |  | inconclusive: 17.8 µM [inhibitor, full curve, poor fit]
C[n+]1cc[nH]c1SCC(=O)c1ccccc1 |  | inconclusive: 39.8 µM [inhibitor, partial curve, poor fit]
Cc1ccc(C(=O)Oc2ccc(Cl)c3cccnc23)cc1[N+](=O)[O-] |  | inconclusive: 10 µM [inhibitor, full curve, poor fit]
CC(C)C(=O)Nc1ccc2[nH]cc(C(C(=O)O)N3CCN(c4ccccc4)CC3)c2c1 (centres undefined) | inactive: -21.3% | 
CNC(=O)CC(CC(=O)c1ccccc1)c1ccccc1 (centres undefined) | inactive: 4.2% | 
Cc1c2c(cc3c4c(c(=O)oc13)CCCC4)C(O)CC(C)(C)O2 (centres undefined) |  | inconclusive: 28.2 µM [inhibitor, partial curve]
CSc1ccccc1NC(=O)CN(C)CC(=O)NCC(=O)Nc1ccc(F)cc1 | inactive: 3.89% | 
Cc1cccc(C(=O)NC(=S)NNC(=O)COc2c(C)cccc2C)c1 |  | active: 25.1 µM
CC1CCCC(NC(=S)Nc2ccccc2)C1C (centres undefined) |  | inconclusive: 50.1 µM [inhibitor, partial curve, poor fit]
Fc1ccc(-c2ccc3ncc(Nc4ccccn4)n3n2)cc1 |  | inconclusive: 89.1 µM [inhibitor, partial curve]

5 structures from above, ordered by molecular weight, descending.
Structure (SMILES) | activity change, negative = inhibition | Potency
O=C1N(Cc2cccc(Cl)c2)C[C@@H]2C[C@@H](c3cccn3-c3cccnc3)N3CCC[C@@]123 | inactive: -6.3% | 
CSc1ccccc1NC(=O)CN(C)CC(=O)NCC(=O)Nc1ccc(F)cc1 | inactive: 3.89% | 
Cc1ccc(NS(=O)(=O)c2c(C)nc3scc(C)n3c2=O)cc1Cl |  | inconclusive: 44.7 µM [inhibitor, partial curve, poor fit]
Cc1cccc(C(=O)c2c(N)sc3c2CCC(C)C3)c1 (centres undefined) |  | inconclusive: 89.1 µM [inhibitor, partial curve, poor fit]
C[n+]1cc[nH]c1SCC(=O)c1ccccc1 |  | inconclusive: 39.8 µM [inhibitor, partial curve, poor fit]

(more compounds)

Structure (SMILES) | activity change, negative = inhibition | Potency
O=C(Cn1c(=O)oc2cc(S(=O)(=O)N3CCCCCC3)ccc21)Nc1ccc(F)cc1F | inactive: -4.55% | 
CCSCCNC(=O)c1cc(-n2cnnc2)ccc1Cl |  | inconclusive: 14.1 µM [inhibitor, partial curve, poor fit]
O=C(COC(=O)C1=COCCO1)Nc1ccc(Cl)cn1 |  | inconclusive: 44.7 µM [inhibitor, partial curve]
CCOC(=O)c1cc2c(=O)n3ccccc3nc2n(Cc2ccco2)c1=NC(=O)c1ccc(C)c(C)c1 | inactive: -13.2% | 
CCCSc1cc(N2CCCC2)nc(-c2ccccc2)n1 | inactive: 7.6% | 
COC1CCC12CCN(C(=O)C1CC1)CC2 (centres undefined) |  | inconclusive: 25.1 µM [inhibitor, partial curve, poor fit]
CCOc1cccc(C(=O)NC(=S)Nc2ccc(N3CCCC3)cc2)c1 |  | inconclusive: 25.1 µM [inhibitor, single point]
COc1cccc(C2=CC(=O)C[C@H](c3ccc(Cl)cc3)C2)c1OC | inactive: -14.3% | 
CC1(C(=O)NCCc2c[nH]c3ccccc23)CCN1Cc1ccccc1OC(F)F (centres undefined) | inactive: -18.6% | 
Cc1cc(N2CCCC2)ccc1NC(=O)COc1ccc(Cl)cc1 |  | inconclusive: 12.6 µM [inhibitor, full curve]
CC(C)CC(=O)NC(c1ccccc1)c1c(O)ccc2ccccc12 (centres undefined) | inactive: 18.1% | 
Cc1ccc2nc(N(CCCN(C)C)C(=O)CN3C(=O)c4ccccc4C3=O)sc2c1 | inactive: -12.9% | 
CS(=O)(=O)N(CC(=O)Nc1cc(Cl)cc(Cl)c1)Cc1ccccc1 | inactive: 11.1% | 
COCCNc1nc(NCc2cccc(OC)c2)c2sccc2n1 |  | inconclusive: 100 µM [inhibitor, partial curve, poor fit]
CN1C[C@@H](NC(=O)CC(C)(C)CC(=O)O)C[C@H]1c1nc(-c2ccc3c(c2)OCO3)no1 |  | inconclusive: 56.2 µM [inhibitor, single point]
CCCCC1CCC(c2nc(C#N)c(N3CCN(C)CC3)o2)CC1 (centres undefined) |  | inconclusive: 35.5 µM [inhibitor, partial curve, poor fit]
Cc1ccc(-n2ncc3c(=O)n(CC(=O)N(C)C)cnc32)cc1C |  | inconclusive: 2.24 µM [inhibitor, full curve, poor fit]
O=C(Nc1ccccc1)C1=C[C@@H](c2csc3ccccc23)C[C@@H](OCc2ccc(CO)cc2)O1 | inactive: -1.55% | 
O=C(CN(CC1CCOC1)C1CC1)NC1CC1 (centres undefined) | inactive: -12% | 
CN(CC=CC#CC(C)(C)C)Cc1cccc2ccccc12 |  | inconclusive: 24.3 µM [inhibitor, partial curve]
O=C(CCN1CCN(C/C=C/c2ccccc2)CC1)Nc1ccccc1Cl |  | inconclusive: 0.501 µM [inhibitor, full curve, poor fit]
COc1cc(C(=O)Oc2ccc3c(c2)CCC3)cc(Cl)c1OCC(C)C | inactive: -0.979% | 
Cc1ccc(C2NC(=O)N(CC(=O)Nc3ccc(C(C)C)cc3)C3=C2C(=O)OC3)cc1 (centres undefined) |  | inconclusive: 35.5 µM [inhibitor, partial curve, poor fit]
